From PubChem BioAssay AID504327 (National Center for Advancing Translational Sciences (NCATS), 2011)
Out of some 390,000 compounds screened, about 820 (0.21%) were called active. Inconclusive means that the source gave no clear call. Such entries were picked first, then a sample of the others. Calls follow the shape of the dose curve; as a rule, active = well fitted inhibition curve with a large enough effect; inconclusive = small, poorly fitted or top-dose-only effect, or another doubt; inactive = no such curve, though single readings can be large or run the other way. Potencies of inconclusive entries are doubtful fits and often do not repeat.

Protein sequences, listed by entry. Tags and fused reporters are not part of them.
UniProt Q92830, whole entry, looked up: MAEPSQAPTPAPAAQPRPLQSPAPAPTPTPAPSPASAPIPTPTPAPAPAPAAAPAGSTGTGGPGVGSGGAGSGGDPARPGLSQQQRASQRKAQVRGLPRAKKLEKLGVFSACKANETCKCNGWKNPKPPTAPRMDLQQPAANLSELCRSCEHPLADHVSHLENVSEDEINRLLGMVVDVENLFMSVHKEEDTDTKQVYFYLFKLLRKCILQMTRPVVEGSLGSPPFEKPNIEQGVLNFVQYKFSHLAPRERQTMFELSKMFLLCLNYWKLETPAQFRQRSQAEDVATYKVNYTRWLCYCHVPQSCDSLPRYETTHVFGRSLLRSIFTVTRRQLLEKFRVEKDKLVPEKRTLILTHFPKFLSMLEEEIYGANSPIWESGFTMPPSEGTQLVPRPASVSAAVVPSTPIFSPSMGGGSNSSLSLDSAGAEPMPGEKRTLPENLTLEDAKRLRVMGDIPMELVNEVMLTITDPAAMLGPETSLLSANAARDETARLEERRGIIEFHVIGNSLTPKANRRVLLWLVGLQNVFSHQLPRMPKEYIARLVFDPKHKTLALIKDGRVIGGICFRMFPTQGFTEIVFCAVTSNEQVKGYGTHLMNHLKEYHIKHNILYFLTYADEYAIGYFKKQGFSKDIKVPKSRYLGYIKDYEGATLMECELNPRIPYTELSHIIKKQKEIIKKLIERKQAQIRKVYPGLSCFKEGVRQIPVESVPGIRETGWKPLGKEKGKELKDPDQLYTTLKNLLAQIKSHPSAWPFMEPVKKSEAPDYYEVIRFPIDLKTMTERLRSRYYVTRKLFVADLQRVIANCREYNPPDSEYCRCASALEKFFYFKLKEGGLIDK

Each compound was assayed against Histone acetyltransferase KAT2A (Homo sapiens) (UniProt Q92830) (assay: qHTS Assay for Inhibitors of GCN5L2). Settings: GCN5L2 HAT assay, ThioGlo1 CoA-SH fluorescence; activity change, negative = inhibition: at 58.9 µM (top of the series) unless noted.
Summary of the method: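 Enzyme at 20nM final was mixed with library compounds for 15 min at room temperature. Peptide H3(1-25) at 75uM, acetyl-CoA at 70uM and ThioGlo1 at 50uM were then added. Plates were read immediately and after 20 min (Ex340nm/Em540nm).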
% is scaled to controls: 0 for no effect and ±100 for the full control effect; potency is read from the fitted curve at half-maximal effect.

| SMILES | Potency | activity change, negative = inhibition |
| --- | --- | --- |
| O=C(NCCNC(=O)c1ccccc1Br)c1cccnc1 | inconclusive: 8.91 µM [inhibitor, single point] |  |
| O=C(NCC1CCCO1)c1cc(S(=O)(=O)N2CCCCC2)ccc1Cl (stereo not drawn) |  | inactive: 1.38% |
| CCOC(=O)c1ccccc1NC(=O)N1CCCN(S(=O)(=O)c2ccc3c(ccn3CC)c2)CC1 |  | inactive: 2.23% |
| Cc1cc(Cl)c2oc(C(=O)N(C)CCCN3CCOCC3)c(C)c2c1 | inconclusive: 3.55 µM [inhibitor, full curve, poor fit] |  |
| N#Cc1ccc(C23CC4(C2)[C@H](CN(CC2CCCCC2)[C@@H]4c2ccccc2)C3c2ccc(C(F)(F)F)cc2)cc1 (stereo partly drawn) | inconclusive: 0.708 µM [inhibitor, single point] |  |
| O=[N+]([O-])c1ccc2nc(C(O)C(O)c3nc4ccc([N+](=O)[O-])cc4[nH]3)[nH]c2c1 (stereo not drawn) | inconclusive: 7.08 µM [inhibitor, partial curve] |  |
| O=C(NC(NC(=S)Nc1ccccc1C(=O)O)C(Cl)(Cl)Cl)c1cccc([N+](=O)[O-])c1 (stereo not drawn) | inconclusive: 0.631 µM [inhibitor, full curve, poor fit] |  |
| CCOCCCNC(=O)c1cc2c(=O)n3ccccc3nc2s1 | inconclusive: 28.2 µM [inhibitor, single point] |  |
| NC(=O)c1ccc(OCC(F)(F)C(F)(F)C(F)(F)C(F)(F)C(F)(F)C(F)F)cc1 | inconclusive: 3.16 µM [inhibitor, partial curve] |  |
| Nc1n[nH]c(N)c1N=Nc1cccc(C(F)(F)F)c1 | inconclusive: 0.141 µM [inhibitor, full curve, poor fit] |  |
| Cc1ccc(-c2cc(C(=O)OCC(=O)N(C)C3CCS(=O)(=O)C3)c3ccccc3n2)c(C)c1 (stereo not drawn) |  | inactive: -16.6% |
| CC(C)(C)C1CCc2c(sc(N)c2C(N)=O)C1 (stereo not drawn) |  | inactive: -10.3% |
| Cc1snc(SCC(=O)c2ccc([N+](=O)[O-])cc2)c1C#N | active: 6.31 µM |  |
| COC(=O)C(C)n1cnc2c(nnn2-c2ccc(OC)cc2)c1=O (stereo not drawn) | inconclusive: 28.2 µM [inhibitor, single point] |  |
| CN1CCc2c(c3ccccc3n2Cc2ccccc2)C1 | inactive |  |
| N/C(CC(=O)Nc1ccc(F)cc1F)=N\OC(=O)c1cccs1 | inconclusive: 2.51 µM [inhibitor, partial curve] |  |
| CC(C)(O)C1Cc2cc(/C=C/C(=O)O)c(O)cc2O1 (stereo not drawn) | active: 10 µM |  |
| C[C@@H]1CN(Cc2nc(-c3cnccn3)no2)C[C@H](C)O1 | inconclusive: 7.08 µM [inhibitor, full curve, poor fit] |  |
| O=C(Nc1cnn(Cc2ccccc2)c1)c1cc2nc(-c3ccco3)cc(C(F)(F)F)n2n1 |  | inactive: 0.788% |
| CCOC(=O)c1ccc(NC(=O)c2nc[nH]c2C(=O)N[C@H](C)c2ccccc2)cc1 | inconclusive: 25.1 µM [inhibitor, single point] |  |
| CCN=C(Nc1ccc2c(c1)OCO2)SC1CC(=O)N(c2ccccc2F)C1=O (stereo not drawn) | inconclusive: 3.16 µM [inhibitor, single point] |  |
| CC(C)C(=O)Nc1cccc(NC(=S)NC(=O)c2ccc(Cl)cc2)c1 | inconclusive: 25.1 µM [inhibitor, single point] |  |
| Cc1csc(NC(=O)c2ccc(Cn3nc(C)c(Br)c3C)o2)n1 |  | inactive: -3.5% |

| SMILES | Potency | activity change, negative = inhibition |
| --- | --- | --- |
| Cc1ccc(-c2c3c(nc4sc(C(N)=O)c(N)c24)CCCC3)o1 |  | inactive: -0.928% |
| COc1cc2nc(=S)n3[nH]c(CCn4nc(C)cc4C)nc3c2cc1OC |  | inactive: -14.9% |
| CCOC(=O)C1=C(C)N(C[C@@H]2CC[C@@H](Cc3ccc(-c4ccccc4)cc3)O2)C(=O)NC1c1ccc(SCc2ccco2)c([N+](=O)[O-])c1 (stereo partly drawn) | inconclusive: 25.1 µM [inhibitor, single point] |  |
| CCCCCn1c(=O)c(C(=O)c2ccccc2)nc2ccccc21 | inconclusive: 44.7 µM [inhibitor, single point] |  |
| COc1ccc(CNCCC2(Cc3ccccc3)CC(C)N(C)CC2C)cc1OC (stereo not drawn) |  | inactive: 1.09% |
| COc1ccc2cc(C(=O)O)ccc2c1 | inconclusive: 0.794 µM [inhibitor, single point] |  |
| CC(C)c1nc2cc(C(=O)N3CCN(c4cnccn4)CC3)ccc2o1 | inconclusive: 28.2 µM [inhibitor, partial curve] |  |
| N#Cc1ccc(NC(=O)c2ccc3c(c2)nnn3C2CCCC2)cc1 |  | inactive: -1.14% |
| Cc1ccc(NC(=O)Cn2c(=O)cnc3ccccc32)cc1S(=O)(=O)N1CCCCC1 | inconclusive: 39.8 µM [inhibitor, single point] |  |
| Cc1cccc(NC(=O)c2oc3ccc(S(=O)(=O)N(C)C4CCCCC4)cc3c2C)c1C |  | inactive: -7.66% |
| CCOC(=O)c1c(NC(=O)c2nn(C)cc2[N+](=O)[O-])sc(C)c1C | inconclusive: 31.6 µM [inhibitor, single point] |  |
| CC1(C)CC(=O)C2=C(C1)c1c(ccc3ccccc13)NC2c1cc([N+](=O)[O-])cc([N+](=O)[O-])c1O (stereo not drawn) | inconclusive: 25.1 µM [inhibitor, single point] |  |
| CC1(CC(=O)N/N=C/c2ccc(-c3ccc(C(=O)O)cc3)o2)OCCO1 |  | inactive: -18.6% |
| CCOC(=O)C1(Cc2ccccc2C)CCCN(C(=O)c2cc(CC)nn2C)C1 (stereo not drawn) | inconclusive: 25.1 µM [inhibitor, single point] |  |
| CCOc1ccccc1NC(=O)CSc1ncc(S(=O)(=O)c2ccc(C(C)(C)C)cc2)c(=O)[nH]1 | inconclusive: 25.1 µM [inhibitor, single point] |  |
| Cc1cc(C)cc(NC(=O)CN2CCc3cc4c(cc3C2C)OCCCO4)c1 (stereo not drawn) |  | inactive: -4.81% |
| CCC(Sc1ccc2nnc(-c3ccc(OC)c(OC)c3)n2n1)C(=O)O (stereo not drawn) |  | inconclusive: -31% [inhibitor] |
| O=C(NCCc1ccncc1)Nc1ccc(F)cc1 | inconclusive: 0.562 µM [inhibitor, single point] |  |
| COc1ccc(-c2nc3ccc(C)cn3c2NCc2ccccc2)cc1SC1CCCCC1 | inconclusive: 28.2 µM [inhibitor, single point] |  |
| Cc1ccc(OCCNC(=O)c2ccc(COc3ccccc3)o2)cc1 |  | inactive: -5.5% |
| O=C1C=CC(=O)N1c1ccc(OC(F)F)cc1 | inconclusive: 25.1 µM [inhibitor, single point] |  |
| COc1ccc(-c2nnc3ccc(SCC(=O)Nc4nccs4)nn23)cc1OC |  | inactive: -12.4% |
| Cc1ccccc1-n1nnc2c(=O)oc3ccccc3c21 | inconclusive: 7.08 µM [inhibitor, partial curve, poor fit] |  |

Sorted by number of heavy atoms (high to low): some entries from above.

| SMILES | Potency | activity change, negative = inhibition |
| --- | --- | --- |
| CCOC(=O)c1ccc(NC(=O)c2nc[nH]c2C(=O)N[C@H](C)c2ccccc2)cc1 | inconclusive: 25.1 µM [inhibitor, single point] |  |
| C[C@@H]1CN(Cc2nc(-c3cnccn3)no2)C[C@H](C)O1 | inconclusive: 7.08 µM [inhibitor, full curve, poor fit] |  |
| O=C1C=CC(=O)N1c1ccc(OC(F)F)cc1 | inconclusive: 25.1 µM [inhibitor, single point] |  |

Reprinted from the entries so far for reference:

| SMILES | Potency | activity change, negative = inhibition |
| --- | --- | --- |
| CC1(C)CC(=O)C2=C(C1)c1c(ccc3ccccc13)NC2c1cc([N+](=O)[O-])cc([N+](=O)[O-])c1O (stereo not drawn) | inconclusive: 25.1 µM [inhibitor, single point] |  |
| CC1(CC(=O)N/N=C/c2ccc(-c3ccc(C(=O)O)cc3)o2)OCCO1 |  | inactive: -18.6% |

Next structures:

| SMILES | Potency | activity change, negative = inhibition |
| --- | --- | --- |
| COc1ccccc1C1c2[nH]c3ccccc3c2C[C@H]2C(=O)N(C3CCN(Cc4ccccc4)CC3)CC(=O)N12 (stereo partly drawn) | inconclusive: 2.24 µM [inhibitor, partial curve] |  |
| COC(=O)C1=C(C)N(Cc2ccccc2)C(=NCCc2c[nH]c3ccccc23)N[C@H]1c1ccccc1 | inactive |  |
| CCN1C(=O)c2cccc3c(S(=O)(=O)NCc4ccccn4)ccc1c23 | inconclusive: 39.8 µM [inhibitor, single point] |  |
| Cc1cccc(CCNC(=O)Cc2ccc(NC3=NC4CS(=O)(=O)CC4S3)cc2)c1 (stereo not drawn) | inconclusive: 3.98 µM [inhibitor, single point] |  |
| O=C1CSC(=S)N1/N=C/c1ccc(O)c(O)c1O | inconclusive: 10 µM [inhibitor, partial curve] |  |
| Cn1c(=O)cc(OCC(=O)NCc2ccccn2)c2ccccc21 | inconclusive: 39.8 µM [inhibitor, single point] |  |
| COc1ccc(CCNC(=O)CN(C2CCCCC2)S(C)(=O)=O)cc1OC | inconclusive: 22.4 µM [inhibitor, partial curve, poor fit] |  |
| Cc1cc(N)n2ncc(-c3ccc(Cl)cc3)c2n1 | inconclusive: 0.794 µM [inhibitor, full curve, poor fit] |  |
| CC(/C=C1\SC(=O)N(CC(=O)Nc2ccc(O)cc2)C1=O)=C\c1ccccc1 | inconclusive: 0.708 µM [inhibitor, single point] |  |
| Cc1cccc(NC(=O)COc2ccccc2C(=O)NC(C)c2ccccc2)c1 (stereo not drawn) | inconclusive: 0.891 µM [inhibitor, full curve, poor fit] |  |
| Cc1noc(C)c1-c1nccc(NC2CC2)n1 | inconclusive: 31.6 µM [inhibitor, single point] |  |
| COc1ccccc1NS(=O)(=O)c1cccc(C(=O)OCc2nc3ccccc3s2)c1 |  | inactive: -10.8% |
| Cc1cc(-c2nc3ncccc3o2)ccc1N | inconclusive: 28.2 µM [inhibitor, single point] |  |
| NS(=O)(=O)c1ccc(N2N=C(c3ccccc3)CC2c2ccccc2)cc1 (stereo not drawn) | inconclusive: 28.2 µM [inhibitor, partial curve] |  |
| c1ccc2sc(SSc3nc4ccccc4s3)nc2c1 | inconclusive: 31.6 µM [inhibitor, single point] |  |
| Cc1ccc(C(=O)Nc2ccc3ncccc3c2)cc1 |  | inactive: -1.09% |
| N#CCOC(=O)c1sccc1-n1cccc1 | inconclusive: 0.141 µM [inhibitor, full curve, poor fit] |  |
| [N-]=C=C1C(=S)NC(=O)[C@H]([n+]2ccccc2)[C@H]1c1ccc(Cl)cc1 | active: 11.2 µM |  |
| Cc1ccc(Cn2cc(SCC(=O)Nc3nccs3)c3ccccc32)cc1 | inconclusive: 15.8 µM [inhibitor, partial curve] |  |
| CCOc1ccc(NC(=O)Nc2ccc3nsnc3c2)cc1 |  | inactive: -0.811% |
| O=[N+]([O-])c1ccc(CNc2cccc(Cl)c2)s1 |  | inactive: -4.56% |
| O=C(OC[C@H]1O[C@@H](OC(=O)c2cc(O)c(O)c(OC(=O)c3cc(O)c(O)c(O)c3)c2)[C@H](OC(=O)c2cc(O)c(O)c(OC(=O)c3cc(O)c(O)c(O)c3)c2)[C@@H](OC(=O)c2cc(O)c(O)c(OC(=O)c3cc(O)c(O)c(O)c3)c2)[C@@H]1OC(=O)c1cc(O)c(O)c(OC(=O)c2cc(O)c(O)c(O)c2)c1)c1cc(O)c(O)c(OC(=O)c2cc(O)c(O)c(O)c2)c1 | inconclusive: 28.2 µM [inhibitor, partial curve] |  |
